Assay results reported in patent US5538731A, “Cosmetic” (Mikimoto Pharmaceutical Co., Ltd., priority 1992, dated 1996).
For at least one compound, name, drawing or mass did not settle the structure.

Assay: Antioxydation test (linoleic acid, thiocyanate method)
Conditions: 5 mg specimen
Experimental: In a 50 ml test tube with a screw cap, the following test solution was prepared. […]
This test solution was allowed to stand in a thermostatic bath at 50° C., while light was shut out. […]
12.125 ml of 75% ethanol and 0.125 ml of 30% ammonium thiocyanate were added to 0.125 ml of the test solution, and the solution was stirred and then allowed to stand for 3 minutes. Afterward, 0.125 ml of a 3.5% aqueous HCl solution including 0.02 N ferrous chloride was added thereto, and the solution was stirred and then allowed to stand for 3 minutes. Next, absorbance was measured at a wavelength of 500 nm. A cell length was 10 mm, and a control was prepared by replacing the test solution with water.

Cc1cc(C(C)(C)C)c(O)c(C(C)(C)C)c1 [BHT, Dibutylhydroxytoluene]
Absorbance at 500 nm After 3 days (linoleic acid test solution at 50° C., light shut out, water 0.050): 0.020 | Absorbance at 500 nm After 5 days (linoleic acid test solution at 50° C., light shut out, water 0.103): 0.018 | Absorbance at 500 nm After 7 days (linoleic acid test solution at 50° C., light shut out, water 0.262): 0.021 | Absorbance at 500 nm After 0 day (linoleic acid test solution, before placing at 50° C., water 0.014): 0.011
